Measured values as given in patent US20190376039A1, “CELLS WITH IMPROVED INWARD RECTIFIER CURRENT” (priority 2018, published 2019).

System: IK1-induced ventricular-like SC-CMs
Test: Action potentials under current clamp in paced IK1-induced SC-CMs (di-LQTS model)
Method: SC-CMs were singularized and plated before cellular electrophysiology experiments on 12-mm poly-d-lysine/laminin or SyntheMax pre-coated coverslips. IK1 was induced by treating singularized cells with doxycycline (2 μM) (Thermo Fisher Scientific) for 48-72 hours prior to cellular electrophysiology analysis. Borosilicate glass pipettes (3-4 MΩ) were used (Model P-97; Sutter Instruments, Novato, Calif.). Whole cell capacitance was calculated by using the time domain technique (20).
AP were measured under current clamp at 32° C. using an Axopatch 200B amplifier and pCLAMP 10 (Molecular Devices, Sunnyvale, Calif.). […] The pipette solution comprised 150 mM K-gluconate, 5 mM EGTA, 10 mM HEPES, and 5 mM MgATP (pH 7.2, KOH). Myocytes were paced at 0.5, 1, 2, and 3 Hz with a depolarizing pulse from a programmable digital stimulator (D55000; WPI, Sarasota, Fla.). AP properties including AP amplitude; resting membrane potential; AP duration at 10% (APD10), 50% (APD50), 70% (APD70), and 90% (APD90) of repolarization; and maximum upstroke velocity (dV/dtmax) were measured (pCLAMP 10; Matlab 6.0, Natick, Mass.). […] Myocytes were paced at 0.5 and 1 Hz. […] AP properties identified above were re-measured.

Cc1cccc(CCN2CCC(C(=O)c3ccc(NS(C)(=O)=O)cc3)CC2)n1 [E4031]
cells in which EADs occurred (100 nM): 2/2
induction of early afterdepolarizations (EADs) (0.5 Hz pacing, E4031 20 nM and 100 nM, ATX-II 30 nM): induced EADs
dV/dTmax (0.5 Hz pacing, E4031 20 nM, ATX-II 30 nM, mean SE): 207.5 ± 26.11 V/s
effect on dV/dt max (drug vs baseline, E4031, ATX-II 30 nM): not affected
